Only a part is listed here, and it is no random draw. Most values lie at the level of the controls, where differences are scatter.
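Also: lysate desalted by size exclusion to strip endogenous ATP, peptide intensities built from DIA-NN precursor signals, and peptides missing any value discarded before comparison.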

Sequences of proteins named here, by UniProt entry; tags and fusion partners are left off. A change or cut given only in a name is not applied to a line headed by its entry.
UniProt P0AFR0: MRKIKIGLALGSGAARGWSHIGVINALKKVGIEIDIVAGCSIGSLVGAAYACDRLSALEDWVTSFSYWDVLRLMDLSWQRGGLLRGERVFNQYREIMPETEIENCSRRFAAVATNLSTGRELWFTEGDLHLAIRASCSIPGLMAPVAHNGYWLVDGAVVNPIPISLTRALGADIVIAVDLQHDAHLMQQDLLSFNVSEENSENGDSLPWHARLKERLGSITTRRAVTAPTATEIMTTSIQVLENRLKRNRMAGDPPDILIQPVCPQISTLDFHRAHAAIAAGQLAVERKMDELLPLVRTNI
UniProt P12995: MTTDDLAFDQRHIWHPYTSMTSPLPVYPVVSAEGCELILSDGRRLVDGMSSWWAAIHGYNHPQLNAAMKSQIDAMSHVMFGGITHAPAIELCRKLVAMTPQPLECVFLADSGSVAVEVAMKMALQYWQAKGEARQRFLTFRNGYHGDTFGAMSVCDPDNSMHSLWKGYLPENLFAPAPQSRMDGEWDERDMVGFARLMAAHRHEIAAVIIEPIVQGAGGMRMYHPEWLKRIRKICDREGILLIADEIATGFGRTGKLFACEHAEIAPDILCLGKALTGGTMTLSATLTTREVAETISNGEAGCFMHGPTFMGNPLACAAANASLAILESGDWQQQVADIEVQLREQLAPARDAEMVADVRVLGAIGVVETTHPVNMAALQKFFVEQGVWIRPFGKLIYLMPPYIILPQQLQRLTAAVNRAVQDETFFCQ
UniProt P13656: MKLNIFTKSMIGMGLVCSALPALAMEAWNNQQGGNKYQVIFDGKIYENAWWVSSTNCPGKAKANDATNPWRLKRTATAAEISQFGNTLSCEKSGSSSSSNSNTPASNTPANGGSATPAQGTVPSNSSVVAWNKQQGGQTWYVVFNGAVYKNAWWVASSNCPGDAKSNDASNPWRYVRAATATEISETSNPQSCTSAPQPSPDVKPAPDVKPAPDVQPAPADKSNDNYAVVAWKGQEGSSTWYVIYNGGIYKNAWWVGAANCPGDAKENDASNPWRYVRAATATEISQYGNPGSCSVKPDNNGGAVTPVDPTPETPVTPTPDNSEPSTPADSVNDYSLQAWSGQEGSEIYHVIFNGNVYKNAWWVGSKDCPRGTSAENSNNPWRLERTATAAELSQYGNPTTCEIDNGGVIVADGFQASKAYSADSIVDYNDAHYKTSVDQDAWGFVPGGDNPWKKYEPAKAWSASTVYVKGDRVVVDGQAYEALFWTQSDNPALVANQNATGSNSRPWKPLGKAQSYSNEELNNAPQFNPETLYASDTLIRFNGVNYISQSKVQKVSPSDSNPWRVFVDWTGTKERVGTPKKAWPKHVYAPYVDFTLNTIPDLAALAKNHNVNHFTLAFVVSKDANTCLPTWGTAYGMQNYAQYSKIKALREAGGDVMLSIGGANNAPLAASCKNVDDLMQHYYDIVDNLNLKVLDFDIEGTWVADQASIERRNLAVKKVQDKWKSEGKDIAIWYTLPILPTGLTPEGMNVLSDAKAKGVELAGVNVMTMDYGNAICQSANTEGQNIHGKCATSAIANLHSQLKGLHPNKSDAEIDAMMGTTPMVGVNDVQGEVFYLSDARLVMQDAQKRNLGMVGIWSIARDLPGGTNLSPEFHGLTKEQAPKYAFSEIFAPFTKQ
UniProt P10902: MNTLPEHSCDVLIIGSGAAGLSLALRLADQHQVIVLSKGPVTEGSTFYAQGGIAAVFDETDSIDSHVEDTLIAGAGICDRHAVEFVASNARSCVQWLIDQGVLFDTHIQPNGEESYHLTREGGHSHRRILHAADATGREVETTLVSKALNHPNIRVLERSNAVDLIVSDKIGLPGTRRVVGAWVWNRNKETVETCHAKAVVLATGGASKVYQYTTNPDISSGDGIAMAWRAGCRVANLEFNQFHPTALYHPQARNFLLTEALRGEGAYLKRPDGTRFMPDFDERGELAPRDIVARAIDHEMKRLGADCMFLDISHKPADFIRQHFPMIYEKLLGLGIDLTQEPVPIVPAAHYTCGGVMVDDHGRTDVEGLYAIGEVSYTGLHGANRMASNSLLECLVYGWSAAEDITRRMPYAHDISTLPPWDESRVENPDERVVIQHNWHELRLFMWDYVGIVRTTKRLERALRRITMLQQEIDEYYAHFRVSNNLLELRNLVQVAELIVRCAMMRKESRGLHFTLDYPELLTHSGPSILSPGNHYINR
UniProt P10378: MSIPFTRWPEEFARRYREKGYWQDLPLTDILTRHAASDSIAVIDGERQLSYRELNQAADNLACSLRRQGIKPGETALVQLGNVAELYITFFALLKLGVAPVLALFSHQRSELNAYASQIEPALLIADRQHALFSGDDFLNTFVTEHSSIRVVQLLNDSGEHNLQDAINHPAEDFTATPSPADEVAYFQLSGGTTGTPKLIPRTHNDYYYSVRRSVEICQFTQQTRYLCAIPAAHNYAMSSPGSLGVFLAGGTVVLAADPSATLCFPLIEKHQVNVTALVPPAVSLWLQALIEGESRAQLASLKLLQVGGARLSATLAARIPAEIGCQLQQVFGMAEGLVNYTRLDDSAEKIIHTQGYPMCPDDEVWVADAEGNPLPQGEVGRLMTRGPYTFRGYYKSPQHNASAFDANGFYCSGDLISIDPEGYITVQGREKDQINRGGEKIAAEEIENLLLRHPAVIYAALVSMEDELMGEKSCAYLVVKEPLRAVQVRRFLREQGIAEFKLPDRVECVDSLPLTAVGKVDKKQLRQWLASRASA
UniProt P15070: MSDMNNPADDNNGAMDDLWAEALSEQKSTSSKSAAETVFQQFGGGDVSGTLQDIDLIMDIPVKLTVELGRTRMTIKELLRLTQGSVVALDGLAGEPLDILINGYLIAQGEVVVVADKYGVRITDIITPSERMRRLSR
UniProt P0C077: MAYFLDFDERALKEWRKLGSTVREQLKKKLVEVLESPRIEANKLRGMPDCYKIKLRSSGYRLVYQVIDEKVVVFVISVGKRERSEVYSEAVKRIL
UniProt P10151: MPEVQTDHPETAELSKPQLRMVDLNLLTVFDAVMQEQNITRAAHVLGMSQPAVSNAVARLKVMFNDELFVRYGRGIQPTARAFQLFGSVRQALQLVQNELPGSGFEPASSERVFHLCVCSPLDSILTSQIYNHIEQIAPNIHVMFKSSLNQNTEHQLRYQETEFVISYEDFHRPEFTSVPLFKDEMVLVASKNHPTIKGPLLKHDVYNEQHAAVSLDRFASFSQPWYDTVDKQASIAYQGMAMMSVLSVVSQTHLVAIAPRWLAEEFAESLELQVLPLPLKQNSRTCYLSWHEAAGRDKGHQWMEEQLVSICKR
UniProt P10100: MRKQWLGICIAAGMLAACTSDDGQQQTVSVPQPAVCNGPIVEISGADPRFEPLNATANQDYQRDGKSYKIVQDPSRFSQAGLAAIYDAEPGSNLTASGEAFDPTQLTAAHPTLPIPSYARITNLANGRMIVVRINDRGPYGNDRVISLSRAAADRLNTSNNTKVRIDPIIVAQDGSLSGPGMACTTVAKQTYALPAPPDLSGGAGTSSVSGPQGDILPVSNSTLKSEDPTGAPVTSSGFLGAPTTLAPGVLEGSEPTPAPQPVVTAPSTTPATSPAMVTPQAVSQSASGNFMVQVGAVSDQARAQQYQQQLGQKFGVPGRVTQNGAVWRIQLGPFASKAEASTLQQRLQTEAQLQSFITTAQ
UniProt P15288: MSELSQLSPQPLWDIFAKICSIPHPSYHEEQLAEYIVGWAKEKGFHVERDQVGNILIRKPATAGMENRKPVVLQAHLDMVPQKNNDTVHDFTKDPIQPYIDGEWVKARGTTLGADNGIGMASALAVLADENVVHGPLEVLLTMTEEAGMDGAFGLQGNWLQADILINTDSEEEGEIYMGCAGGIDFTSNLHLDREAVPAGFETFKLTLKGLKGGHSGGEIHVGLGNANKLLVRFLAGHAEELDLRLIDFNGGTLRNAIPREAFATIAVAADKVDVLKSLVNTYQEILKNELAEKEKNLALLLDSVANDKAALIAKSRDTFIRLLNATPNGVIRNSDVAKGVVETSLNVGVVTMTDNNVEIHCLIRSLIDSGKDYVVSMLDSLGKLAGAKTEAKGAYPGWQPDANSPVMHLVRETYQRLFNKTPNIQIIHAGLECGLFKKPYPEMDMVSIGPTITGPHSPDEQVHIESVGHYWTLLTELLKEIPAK
UniProt P0AFP2: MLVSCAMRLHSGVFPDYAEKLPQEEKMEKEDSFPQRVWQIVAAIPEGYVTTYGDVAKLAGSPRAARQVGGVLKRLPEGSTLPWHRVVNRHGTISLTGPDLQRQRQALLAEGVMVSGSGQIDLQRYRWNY
UniProt P13039: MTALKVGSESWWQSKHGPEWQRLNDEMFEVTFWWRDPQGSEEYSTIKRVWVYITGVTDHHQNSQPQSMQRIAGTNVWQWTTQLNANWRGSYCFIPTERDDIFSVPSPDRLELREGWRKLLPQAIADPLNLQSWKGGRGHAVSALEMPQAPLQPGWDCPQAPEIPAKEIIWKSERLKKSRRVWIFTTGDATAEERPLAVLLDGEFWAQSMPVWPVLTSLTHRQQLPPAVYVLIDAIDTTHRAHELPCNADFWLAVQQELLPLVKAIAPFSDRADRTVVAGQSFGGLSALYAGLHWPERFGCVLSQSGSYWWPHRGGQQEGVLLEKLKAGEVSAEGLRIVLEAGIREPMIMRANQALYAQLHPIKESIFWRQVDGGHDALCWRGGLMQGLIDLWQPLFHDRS
UniProt P13036: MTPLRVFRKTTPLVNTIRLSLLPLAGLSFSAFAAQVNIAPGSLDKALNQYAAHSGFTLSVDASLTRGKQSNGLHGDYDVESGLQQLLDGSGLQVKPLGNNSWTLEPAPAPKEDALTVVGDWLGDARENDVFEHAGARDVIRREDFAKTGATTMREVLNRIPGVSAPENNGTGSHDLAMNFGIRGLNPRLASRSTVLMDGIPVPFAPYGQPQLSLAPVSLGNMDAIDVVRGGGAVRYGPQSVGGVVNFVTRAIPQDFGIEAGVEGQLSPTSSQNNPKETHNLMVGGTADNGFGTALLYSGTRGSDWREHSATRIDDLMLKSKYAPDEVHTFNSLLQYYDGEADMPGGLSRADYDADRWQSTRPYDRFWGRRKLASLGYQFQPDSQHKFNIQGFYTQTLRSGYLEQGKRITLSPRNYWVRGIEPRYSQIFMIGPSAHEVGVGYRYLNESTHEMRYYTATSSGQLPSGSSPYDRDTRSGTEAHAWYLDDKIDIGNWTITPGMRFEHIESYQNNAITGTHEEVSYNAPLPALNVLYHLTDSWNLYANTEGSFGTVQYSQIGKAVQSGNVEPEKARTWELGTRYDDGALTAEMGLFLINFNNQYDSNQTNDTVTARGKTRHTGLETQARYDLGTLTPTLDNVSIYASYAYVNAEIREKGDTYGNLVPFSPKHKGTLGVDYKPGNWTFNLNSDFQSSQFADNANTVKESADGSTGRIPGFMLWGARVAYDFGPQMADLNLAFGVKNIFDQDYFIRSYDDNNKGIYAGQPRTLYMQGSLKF
UniProt P0CG19: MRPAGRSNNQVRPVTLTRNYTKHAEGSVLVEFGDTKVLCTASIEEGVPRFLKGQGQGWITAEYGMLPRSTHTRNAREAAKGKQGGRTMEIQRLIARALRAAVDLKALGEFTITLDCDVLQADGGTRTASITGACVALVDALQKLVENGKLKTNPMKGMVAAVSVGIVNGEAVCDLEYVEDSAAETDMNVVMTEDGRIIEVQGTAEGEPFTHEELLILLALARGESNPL
UniProt P14407: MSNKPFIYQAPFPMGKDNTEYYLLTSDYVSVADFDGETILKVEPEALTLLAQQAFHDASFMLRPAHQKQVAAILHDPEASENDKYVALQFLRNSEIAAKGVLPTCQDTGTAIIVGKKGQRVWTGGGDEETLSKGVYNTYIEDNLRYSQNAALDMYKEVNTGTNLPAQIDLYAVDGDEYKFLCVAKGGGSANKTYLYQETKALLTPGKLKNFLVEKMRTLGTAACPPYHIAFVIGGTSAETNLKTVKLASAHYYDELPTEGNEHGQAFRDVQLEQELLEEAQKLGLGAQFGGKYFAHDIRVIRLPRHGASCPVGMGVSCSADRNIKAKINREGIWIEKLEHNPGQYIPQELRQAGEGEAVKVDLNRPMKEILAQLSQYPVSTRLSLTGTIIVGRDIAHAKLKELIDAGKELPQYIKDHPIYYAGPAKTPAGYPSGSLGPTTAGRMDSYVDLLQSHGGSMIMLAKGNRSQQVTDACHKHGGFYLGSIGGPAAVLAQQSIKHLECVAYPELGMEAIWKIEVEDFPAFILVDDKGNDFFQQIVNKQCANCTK
UniProt P0AFW0: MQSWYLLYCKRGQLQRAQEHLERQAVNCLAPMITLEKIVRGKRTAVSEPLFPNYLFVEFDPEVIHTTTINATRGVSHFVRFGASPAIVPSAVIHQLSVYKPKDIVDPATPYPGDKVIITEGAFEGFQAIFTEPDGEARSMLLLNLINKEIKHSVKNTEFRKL
UniProt P12758: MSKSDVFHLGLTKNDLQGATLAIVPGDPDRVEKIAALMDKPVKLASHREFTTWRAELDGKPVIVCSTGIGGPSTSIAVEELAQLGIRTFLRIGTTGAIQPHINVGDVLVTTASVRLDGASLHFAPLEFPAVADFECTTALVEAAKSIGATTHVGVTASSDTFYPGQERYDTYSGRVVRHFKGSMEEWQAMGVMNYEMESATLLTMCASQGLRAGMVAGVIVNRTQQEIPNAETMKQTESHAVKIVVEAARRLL

Compound in the assay: Nc1ncnc2c1ncn2[C@@H]1O[C@H](COP(=O)(O)OP(=O)(O)OP(=O)(O)O)[C@@H](O)[C@H]1O [adenosine 5'-triphosphate]
In words: log2 fold change of tryptic peptide abundance, ligand vs vehicle (limited proteolysis) (log2 ratio); higher = more trypsin-susceptible (destabilized). The following applies: ligand concentration: 5 mM; sample: E. coli desalted lysate; replicate design: treated before aliquoting. As to the method: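 HT-PELSA: desalted E. coli K-12 BW25113 lysate (with 12 mM MgCl2) incubated with 5 mM ATP (pH 7) or water for 30 min at 25 C, then a 4 min trypsin pulse at 22 C. Peptides were quantified by DIA-MS (4 replicates). Value is the peptide log2 fold change (treated/control); negative = stabilized. Scale: negative = ligand-stabilized region.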
As for “UniProt P0AFR0 (peptide sequence: LMDLSWQR, peptide start residue: 73)”, the log2 fold change was -0.247.

As to “UniProt P12281 (peptide sequence: LSGNTASGLPAR, peptide start residue: 319)”, the log2 fold change was determined as 0.838.

In the case of “UniProt P0AGL5 (peptide sequence: AKEVYSAR, peptide start residue: 151)”, the log2 fold change was 0.22.

On to “UniProt P12995 (peptide sequence: MDGEWDER, peptide start residue: 182)”, for which the log2 fold change is -0.0904.

As to “UniProt P0DN74 (peptide sequence: ALQAAGMTFR, peptide start residue: 20)”, the log2 fold change was -0.00512.

Regarding “UniProt P11349 (peptide sequence: EEDGIVLIDQDKCR, peptide start residue: 205)”, the log2 fold change worked out at 0.357.

Consider “UniProt P13656 (peptide sequence: ANDATNPWR, peptide start residue: 63)”, for which the log2 fold change was -0.185.

For the target “UniProt P0DM85 (peptide sequence: LLNYAQQAR, peptide start residue: 426)”, the log2 fold change was determined as 0.735.

Consider “UniProt P0AF43 (peptide sequence: MPKEELAEEESR, peptide start residue: 388)”, for which the log2 fold change is -0.276.

As to “UniProt P10902 (peptide sequence: AVVLATGGASK, peptide start residue: 199)”, the log2 fold change turned out to be 0.0539.

Take “UniProt P10378 (peptide sequence: SCAYLVVKEPLR, peptide start residue: 474)”: the log2 fold change was -0.252.

Consider “UniProt P15070 (peptide sequence: ITDIITPSER, peptide start residue: 122)”, for which the log2 fold change was -0.07.

On to “UniProt P0AEX3 (peptide sequence: ALKEAGSLK, peptide start residue: 228)”, for which the log2 fold change was -0.331.

Turning to “UniProt P11289 (peptide sequence: GYAEGQKK, peptide start residue: 66)”, the log2 fold change was determined as 0.329.

On to “UniProt P0C077 (peptide sequence: LVYQVIDEK, peptide start residue: 62)”, for which the log2 fold change was determined as 0.626.

Turning to “UniProt P10151 (peptide sequence: AFQLFGSVR, peptide start residue: 82)”, the log2 fold change turned out to be 0.645.

In the case of “UniProt P15877 (peptide sequence: GVSYHEAK, peptide start residue: 267)”, the log2 fold change is -0.525.

For the target “UniProt P0CB62 (peptide sequence: LAMPSGNQEPR, peptide start residue: 3)”, the log2 fold change came to 0.179.

With “UniProt P10100 (peptide sequence: AEASTLQQR, peptide start residue: 339)”, the log2 fold change stood at 0.123.

For the target “UniProt P15032 (peptide sequence: FIVAPEFNR, peptide start residue: 665)”, the log2 fold change is -0.604.

Consider “UniProt P15288 (peptide sequence: LLNATPNGVIR, peptide start residue: 323)”, for which the log2 fold change is 0.526.

Regarding “UniProt P13445 (peptide sequence: LDHEPSAEEIAEQLDKPVDDVSR, peptide start residue: 189)”, the log2 fold change is -0.375.

Take “UniProt P0AFP2 (peptide sequence: EDSFPQR, peptide start residue: 30)”: the log2 fold change was -0.27.

Consider “UniProt P15006 (peptide sequence: GFHLNHGK, peptide start residue: 84)”, for which the log2 fold change is -0.161.

On to “UniProt P11072 (peptide sequence: NNDEHFDLTGK, peptide start residue: 91)”, for which the log2 fold change came out at 0.19.

In the case of “UniProt P0AFF4 (peptide sequence: VPTGTQTVSH, peptide start residue: 409)”, the log2 fold change was -0.424.

For the target “UniProt P0CF66 (peptide sequence: QLAERDEELAILQK, peptide start residue: 76)”, the log2 fold change came out at 0.199.

Take “UniProt P13039 (peptide sequence: AGEVSAEGLR, peptide start residue: 327)”: the log2 fold change was -0.551.

“UniProt P15033 (peptide sequence: TLDEGVKK, peptide start residue: 53)”: the log2 fold change turned out to be 0.0291.

Regarding “UniProt P16429 (peptide sequence: LGGIGKK, peptide start residue: 358)”, the log2 fold change was 0.167.

Regarding “UniProt P11663 (peptide sequence: NAMLYDALK, peptide start residue: 125)”, the log2 fold change was 0.276.

Consider “UniProt P13036 (peptide sequence: ENDVFEHAGAR, peptide start residue: 127)”, for which the log2 fold change is -0.0734.

Turning to “UniProt P0CG19 (peptide sequence: HAEGSVLVEFGDTK, peptide start residue: 23)”, the log2 fold change was -0.391.

For “UniProt P14407 (peptide sequence: LEHNPGQYIPQELR, peptide start residue: 338)”, the log2 fold change worked out at 0.516.

As for “UniProt P0AFW0 (peptide sequence: SMLLLNLINKEIK, peptide start residue: 139)”, the log2 fold change stood at 0.489.

For the target “UniProt P13016 (peptide sequence: TDPGPAFDWAR, peptide start residue: 163)”, the log2 fold change was -0.279.

Consider “UniProt P0AF98 (peptide sequence: TLWNTDTDR, peptide start residue: 253)”, for which the log2 fold change is 0.691.

As to “UniProt P0CK95 (peptide sequence: WFSLTTR, peptide start residue: 436)”, the log2 fold change came to 0.272.

As for “UniProt P12999 (peptide sequence: QAIAAAFGR, peptide start residue: 7)”, the log2 fold change is 0.489.

For the target “UniProt P12758 (peptide sequence: IVVEAARR, peptide start residue: 244)”, the log2 fold change was -1.03.

The values above are taken from the supplement of paper PMC12819154, “High-throughput peptide-centric local stability assay extends protein–ligand identification to membrane proteins, tissues and bacteria” (Nature Structural & Molecular Biology, 2025).
